Measured values: article PMC7762499
Results are given in words; binding and its absence hold for the method and conditions named. In cells and extracts the contact can be indirect. Some entries that bind do so weakly or less than the wild type.

Sequences of proteins named here, by UniProt entry; tags and fusion partners are left off.
UniProt P01108: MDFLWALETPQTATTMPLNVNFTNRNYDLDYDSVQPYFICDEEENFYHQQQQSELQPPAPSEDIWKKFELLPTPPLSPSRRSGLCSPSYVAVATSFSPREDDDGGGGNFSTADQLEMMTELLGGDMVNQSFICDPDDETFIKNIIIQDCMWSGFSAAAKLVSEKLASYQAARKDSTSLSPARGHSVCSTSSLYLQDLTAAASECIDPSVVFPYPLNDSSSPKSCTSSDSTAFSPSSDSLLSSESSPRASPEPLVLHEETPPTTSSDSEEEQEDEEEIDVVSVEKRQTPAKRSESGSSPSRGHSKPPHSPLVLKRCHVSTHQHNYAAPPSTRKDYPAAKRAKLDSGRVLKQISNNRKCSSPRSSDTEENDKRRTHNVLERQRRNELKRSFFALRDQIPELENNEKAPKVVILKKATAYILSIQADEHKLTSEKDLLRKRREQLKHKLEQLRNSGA
UniProt Q8VBV4: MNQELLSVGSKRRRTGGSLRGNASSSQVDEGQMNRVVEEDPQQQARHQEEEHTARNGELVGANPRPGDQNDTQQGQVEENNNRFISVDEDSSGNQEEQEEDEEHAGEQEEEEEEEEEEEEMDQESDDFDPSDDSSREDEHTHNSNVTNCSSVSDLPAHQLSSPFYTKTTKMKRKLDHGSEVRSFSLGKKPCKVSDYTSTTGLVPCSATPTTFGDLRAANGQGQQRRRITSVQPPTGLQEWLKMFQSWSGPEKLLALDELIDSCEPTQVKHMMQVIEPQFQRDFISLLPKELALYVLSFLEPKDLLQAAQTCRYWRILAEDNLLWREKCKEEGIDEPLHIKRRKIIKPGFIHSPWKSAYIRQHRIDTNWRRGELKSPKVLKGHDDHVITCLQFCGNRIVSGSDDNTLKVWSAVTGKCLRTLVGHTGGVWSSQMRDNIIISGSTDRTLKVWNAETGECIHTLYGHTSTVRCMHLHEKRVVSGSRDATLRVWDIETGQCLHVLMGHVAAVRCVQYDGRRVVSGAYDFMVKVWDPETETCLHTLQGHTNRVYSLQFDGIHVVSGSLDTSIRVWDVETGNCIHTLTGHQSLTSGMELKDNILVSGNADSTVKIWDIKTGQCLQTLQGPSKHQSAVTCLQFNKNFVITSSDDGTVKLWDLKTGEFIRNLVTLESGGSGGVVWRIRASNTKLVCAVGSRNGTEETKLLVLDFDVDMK

How the values were obtained:
[1] = molecular target: c-Myc (mouse (endogenous in BMDMs)) (UniProt P01108); assay: co-IP; endogenous proteins; BMDMs stimulated with LLC conditioned medium for the indicated times and treated with MG132; lysates in IP Lysis Buffer incubated overnight at 4 C with specific antibodies on protein G magnetic beads, IgG as control; immunoblot; done in both directions
[2] = molecular target: F-box and WD repeat domain-containing 7 (FBXW7) (mouse (endogenous in BMDMs)) (UniProt Q8VBV4); assay: as above

Substance	binding [1]	binding [2]
F-box and WD repeat domain-containing 7 (FBXW7) (from UniProt Q8VBV4 1-710)	binds	–
c-Myc (from UniProt P01108 1-454)	–	binds
